# Test results: the supplement of paper PMC12067093, “Discovery and optimisation of a covalent ligand for TRIM25 and its application to targeted protein ubiquitination” (Chemical Science, 2025)
# Sequences of proteins named here, by UniProt entry; tags and fusion partners are left off. A change or cut given only in a name is not applied to a line headed by its entry.
# UniProt P78347: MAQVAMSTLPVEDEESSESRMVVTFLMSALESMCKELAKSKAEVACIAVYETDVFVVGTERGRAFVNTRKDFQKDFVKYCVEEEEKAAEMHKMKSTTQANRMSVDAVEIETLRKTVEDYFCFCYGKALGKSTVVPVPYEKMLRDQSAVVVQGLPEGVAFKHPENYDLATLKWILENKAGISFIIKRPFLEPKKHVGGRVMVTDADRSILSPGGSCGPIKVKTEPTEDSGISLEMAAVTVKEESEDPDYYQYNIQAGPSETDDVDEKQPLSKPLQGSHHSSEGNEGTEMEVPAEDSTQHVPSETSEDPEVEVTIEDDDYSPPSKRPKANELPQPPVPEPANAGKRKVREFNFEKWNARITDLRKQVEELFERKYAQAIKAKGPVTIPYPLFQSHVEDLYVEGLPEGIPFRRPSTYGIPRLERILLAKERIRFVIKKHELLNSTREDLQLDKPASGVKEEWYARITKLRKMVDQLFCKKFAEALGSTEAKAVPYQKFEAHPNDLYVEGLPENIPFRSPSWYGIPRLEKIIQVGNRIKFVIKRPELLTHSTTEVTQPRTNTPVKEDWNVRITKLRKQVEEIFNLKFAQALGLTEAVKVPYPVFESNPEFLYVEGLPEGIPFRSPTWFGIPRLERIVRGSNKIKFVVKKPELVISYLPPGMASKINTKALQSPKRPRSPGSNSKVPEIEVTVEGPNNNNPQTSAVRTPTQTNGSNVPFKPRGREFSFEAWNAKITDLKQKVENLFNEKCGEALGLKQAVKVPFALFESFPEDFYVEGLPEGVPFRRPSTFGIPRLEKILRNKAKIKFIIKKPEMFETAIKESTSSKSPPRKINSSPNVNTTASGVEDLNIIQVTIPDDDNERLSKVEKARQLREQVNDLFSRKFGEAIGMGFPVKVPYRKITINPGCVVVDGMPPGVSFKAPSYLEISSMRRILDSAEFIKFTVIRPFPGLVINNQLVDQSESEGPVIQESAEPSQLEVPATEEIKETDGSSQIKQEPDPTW
# UniProt Q8TD30: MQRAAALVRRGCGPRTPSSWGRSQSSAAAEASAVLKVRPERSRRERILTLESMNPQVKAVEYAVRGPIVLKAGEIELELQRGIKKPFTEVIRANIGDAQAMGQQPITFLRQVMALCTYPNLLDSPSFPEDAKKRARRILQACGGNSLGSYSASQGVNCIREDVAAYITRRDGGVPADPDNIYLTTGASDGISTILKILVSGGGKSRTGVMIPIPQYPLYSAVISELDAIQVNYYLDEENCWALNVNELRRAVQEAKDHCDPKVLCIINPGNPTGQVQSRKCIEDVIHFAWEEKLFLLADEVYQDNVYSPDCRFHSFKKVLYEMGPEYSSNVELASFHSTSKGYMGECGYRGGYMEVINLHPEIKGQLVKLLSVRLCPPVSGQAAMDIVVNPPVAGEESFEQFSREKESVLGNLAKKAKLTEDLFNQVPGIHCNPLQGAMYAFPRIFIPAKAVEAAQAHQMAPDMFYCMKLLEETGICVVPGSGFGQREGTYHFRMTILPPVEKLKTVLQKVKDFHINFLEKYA
# UniProt P25098: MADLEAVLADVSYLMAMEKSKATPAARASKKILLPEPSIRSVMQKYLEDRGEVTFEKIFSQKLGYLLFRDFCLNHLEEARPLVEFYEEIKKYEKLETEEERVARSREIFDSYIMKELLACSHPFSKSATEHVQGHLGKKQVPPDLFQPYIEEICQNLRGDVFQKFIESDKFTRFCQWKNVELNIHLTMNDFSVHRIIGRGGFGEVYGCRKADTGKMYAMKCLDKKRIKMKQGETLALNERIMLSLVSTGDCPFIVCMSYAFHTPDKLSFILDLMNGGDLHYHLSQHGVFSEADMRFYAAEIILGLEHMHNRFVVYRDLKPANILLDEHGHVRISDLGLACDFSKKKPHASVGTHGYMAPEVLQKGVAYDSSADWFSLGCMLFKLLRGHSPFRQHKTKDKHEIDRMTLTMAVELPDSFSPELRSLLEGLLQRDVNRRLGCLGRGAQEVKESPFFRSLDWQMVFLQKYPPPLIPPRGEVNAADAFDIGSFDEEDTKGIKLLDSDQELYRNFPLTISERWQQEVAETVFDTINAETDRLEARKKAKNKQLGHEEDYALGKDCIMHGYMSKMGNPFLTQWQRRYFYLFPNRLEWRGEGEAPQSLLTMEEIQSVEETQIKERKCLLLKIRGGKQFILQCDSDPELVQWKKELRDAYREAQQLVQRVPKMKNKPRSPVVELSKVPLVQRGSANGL
# UniProt P53701: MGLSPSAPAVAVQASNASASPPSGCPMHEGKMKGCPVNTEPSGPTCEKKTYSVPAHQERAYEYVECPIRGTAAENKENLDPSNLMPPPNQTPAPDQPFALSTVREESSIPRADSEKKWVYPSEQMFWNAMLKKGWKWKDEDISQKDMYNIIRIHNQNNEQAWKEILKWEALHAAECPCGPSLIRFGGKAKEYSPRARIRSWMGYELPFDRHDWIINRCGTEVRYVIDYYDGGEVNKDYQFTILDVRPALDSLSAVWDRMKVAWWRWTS
# UniProt Q9Y5Q8: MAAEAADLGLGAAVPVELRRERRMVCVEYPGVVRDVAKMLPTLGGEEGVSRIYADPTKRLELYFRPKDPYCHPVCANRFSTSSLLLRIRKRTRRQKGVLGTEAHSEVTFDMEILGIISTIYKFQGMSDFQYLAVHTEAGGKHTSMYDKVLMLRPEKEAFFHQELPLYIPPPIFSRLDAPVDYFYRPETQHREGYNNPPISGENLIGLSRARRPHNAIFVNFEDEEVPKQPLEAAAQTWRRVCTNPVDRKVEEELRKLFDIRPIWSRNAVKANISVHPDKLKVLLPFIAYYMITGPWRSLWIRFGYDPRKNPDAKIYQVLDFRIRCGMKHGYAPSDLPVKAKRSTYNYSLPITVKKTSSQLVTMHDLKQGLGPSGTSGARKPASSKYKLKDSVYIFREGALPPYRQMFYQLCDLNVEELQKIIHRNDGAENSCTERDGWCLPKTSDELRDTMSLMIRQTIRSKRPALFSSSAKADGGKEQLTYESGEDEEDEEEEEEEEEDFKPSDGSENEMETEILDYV
# UniProt P49841: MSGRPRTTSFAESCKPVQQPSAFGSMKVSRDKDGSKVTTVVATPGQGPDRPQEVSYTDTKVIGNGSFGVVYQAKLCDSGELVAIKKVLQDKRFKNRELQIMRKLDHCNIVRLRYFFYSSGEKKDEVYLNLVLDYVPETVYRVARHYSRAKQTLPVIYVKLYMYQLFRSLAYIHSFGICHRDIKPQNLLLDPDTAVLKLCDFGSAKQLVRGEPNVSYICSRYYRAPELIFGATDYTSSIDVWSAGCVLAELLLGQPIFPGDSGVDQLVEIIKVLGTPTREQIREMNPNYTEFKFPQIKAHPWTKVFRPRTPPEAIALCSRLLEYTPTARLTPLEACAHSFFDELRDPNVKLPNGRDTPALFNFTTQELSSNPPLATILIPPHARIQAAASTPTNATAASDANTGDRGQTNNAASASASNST
# UniProt P57764: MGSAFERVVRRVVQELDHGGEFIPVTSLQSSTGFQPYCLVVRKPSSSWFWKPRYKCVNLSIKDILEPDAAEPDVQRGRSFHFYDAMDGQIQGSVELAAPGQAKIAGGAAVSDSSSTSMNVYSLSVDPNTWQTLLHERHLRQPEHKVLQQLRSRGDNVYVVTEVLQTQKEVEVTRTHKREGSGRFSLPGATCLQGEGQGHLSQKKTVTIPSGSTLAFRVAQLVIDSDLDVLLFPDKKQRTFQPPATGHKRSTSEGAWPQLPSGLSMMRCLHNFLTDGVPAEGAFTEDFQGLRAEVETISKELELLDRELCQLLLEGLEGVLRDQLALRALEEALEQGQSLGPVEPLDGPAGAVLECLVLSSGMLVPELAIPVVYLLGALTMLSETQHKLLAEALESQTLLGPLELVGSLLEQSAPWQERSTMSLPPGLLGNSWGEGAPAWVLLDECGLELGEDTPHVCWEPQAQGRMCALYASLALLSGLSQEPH
# UniProt P28799: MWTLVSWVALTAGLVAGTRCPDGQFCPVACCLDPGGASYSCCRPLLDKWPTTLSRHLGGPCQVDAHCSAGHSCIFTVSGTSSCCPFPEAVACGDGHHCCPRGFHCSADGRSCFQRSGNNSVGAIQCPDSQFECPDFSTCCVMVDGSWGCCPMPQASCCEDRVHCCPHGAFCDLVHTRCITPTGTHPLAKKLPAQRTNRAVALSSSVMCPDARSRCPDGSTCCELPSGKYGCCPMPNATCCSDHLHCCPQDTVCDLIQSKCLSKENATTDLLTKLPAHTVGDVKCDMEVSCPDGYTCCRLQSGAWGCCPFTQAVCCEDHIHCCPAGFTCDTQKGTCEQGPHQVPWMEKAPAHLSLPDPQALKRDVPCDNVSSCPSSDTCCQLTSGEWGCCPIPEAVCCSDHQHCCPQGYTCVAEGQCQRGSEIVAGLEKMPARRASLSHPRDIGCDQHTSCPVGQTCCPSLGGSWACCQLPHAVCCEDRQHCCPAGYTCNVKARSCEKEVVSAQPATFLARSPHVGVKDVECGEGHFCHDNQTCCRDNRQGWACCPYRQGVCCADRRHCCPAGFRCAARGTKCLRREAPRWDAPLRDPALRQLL
# UniProt Q9Y450, whole entry, looked up: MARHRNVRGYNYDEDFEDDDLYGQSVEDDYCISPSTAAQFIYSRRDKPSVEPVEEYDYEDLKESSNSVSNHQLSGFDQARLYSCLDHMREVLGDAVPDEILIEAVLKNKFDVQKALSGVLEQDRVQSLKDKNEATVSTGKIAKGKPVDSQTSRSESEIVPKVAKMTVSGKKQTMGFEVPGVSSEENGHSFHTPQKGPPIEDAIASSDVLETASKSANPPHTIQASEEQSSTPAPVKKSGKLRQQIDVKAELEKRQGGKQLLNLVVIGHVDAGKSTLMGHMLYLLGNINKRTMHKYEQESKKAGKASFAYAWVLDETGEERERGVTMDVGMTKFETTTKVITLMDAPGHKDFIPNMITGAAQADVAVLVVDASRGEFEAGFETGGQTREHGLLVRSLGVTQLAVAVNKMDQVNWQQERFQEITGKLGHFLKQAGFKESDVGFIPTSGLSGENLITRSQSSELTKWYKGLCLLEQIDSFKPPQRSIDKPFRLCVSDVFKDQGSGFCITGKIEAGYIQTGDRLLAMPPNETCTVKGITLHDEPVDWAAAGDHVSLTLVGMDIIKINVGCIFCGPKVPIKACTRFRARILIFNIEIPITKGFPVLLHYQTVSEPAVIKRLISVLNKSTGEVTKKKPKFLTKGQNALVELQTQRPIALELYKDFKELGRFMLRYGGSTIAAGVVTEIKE
# UniProt P09488: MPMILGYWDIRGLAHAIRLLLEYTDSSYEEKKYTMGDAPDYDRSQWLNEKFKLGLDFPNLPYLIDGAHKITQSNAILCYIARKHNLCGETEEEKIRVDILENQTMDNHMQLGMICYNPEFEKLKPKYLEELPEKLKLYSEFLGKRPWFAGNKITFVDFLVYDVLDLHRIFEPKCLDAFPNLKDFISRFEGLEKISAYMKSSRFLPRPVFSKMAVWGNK
# UniProt O75367, whole entry, looked up: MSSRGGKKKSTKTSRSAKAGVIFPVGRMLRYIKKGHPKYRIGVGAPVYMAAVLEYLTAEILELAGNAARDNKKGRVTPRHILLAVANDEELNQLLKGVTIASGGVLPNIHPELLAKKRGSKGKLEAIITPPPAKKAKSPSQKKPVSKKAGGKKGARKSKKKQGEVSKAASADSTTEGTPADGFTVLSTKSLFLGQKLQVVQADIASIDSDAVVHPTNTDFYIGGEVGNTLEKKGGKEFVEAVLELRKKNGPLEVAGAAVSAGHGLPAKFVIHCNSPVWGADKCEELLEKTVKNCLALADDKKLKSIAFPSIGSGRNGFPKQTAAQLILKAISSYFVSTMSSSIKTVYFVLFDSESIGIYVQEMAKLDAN
# UniProt P40939: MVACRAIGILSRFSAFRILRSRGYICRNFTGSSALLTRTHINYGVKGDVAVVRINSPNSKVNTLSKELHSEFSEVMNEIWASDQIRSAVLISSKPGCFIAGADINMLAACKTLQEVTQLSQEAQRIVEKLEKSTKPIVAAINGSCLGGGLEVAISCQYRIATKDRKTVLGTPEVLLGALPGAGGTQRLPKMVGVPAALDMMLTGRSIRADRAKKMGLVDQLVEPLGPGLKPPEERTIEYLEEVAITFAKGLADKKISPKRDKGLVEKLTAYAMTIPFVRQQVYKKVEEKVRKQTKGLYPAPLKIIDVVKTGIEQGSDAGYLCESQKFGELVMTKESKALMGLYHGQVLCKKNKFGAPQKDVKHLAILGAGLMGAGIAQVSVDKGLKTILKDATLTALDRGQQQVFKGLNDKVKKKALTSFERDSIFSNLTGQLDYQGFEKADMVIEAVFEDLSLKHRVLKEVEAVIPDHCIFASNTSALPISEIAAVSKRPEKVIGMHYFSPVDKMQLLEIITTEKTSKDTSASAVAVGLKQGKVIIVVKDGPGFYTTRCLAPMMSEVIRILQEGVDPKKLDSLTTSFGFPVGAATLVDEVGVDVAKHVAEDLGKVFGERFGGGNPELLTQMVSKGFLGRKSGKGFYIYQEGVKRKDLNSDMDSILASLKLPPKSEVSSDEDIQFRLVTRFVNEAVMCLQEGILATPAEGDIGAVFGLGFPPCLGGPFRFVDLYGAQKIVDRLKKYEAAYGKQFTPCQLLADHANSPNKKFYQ
# Some of the results follow.
# Compound: Cc1cc(ccc1-c1ccccc1)C(=O)N1CCCN(CC1)C(=O)CCl [compound 10]
# Assay: probe-labelled cysteine peptide fold change vs DMSO (competition) (log2 fold change); higher = less target engagement (more negative = stronger competition)
# Details: THP-1, incubation time: 4 h
# 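Note: competitive profiling in live THP-1 cells: cysteine peptides tagged with an iodoacetamide desthiobiotin (IA-DTB) probe, intensity after compound treatment relative to DMSO-treated cells.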
Target,probe-labelled cysteine peptide fold change (10 µM),probe-labelled cysteine peptide fold change (50 µM)
GTF2I_P78347_215_SILSPGGSCGPIK (UniProt P78347),-0.216,-0.252
GPT2_Q8TD30_311_LFLLADEVYQDNVYSPDCR (UniProt Q8TD30),0.00843,-0.16
GTF2I_P78347_475_KMVDQLFCK (UniProt P78347),-0.376,-0.337
GRK2_P25098_439_RLGCLGR (UniProt P25098),-0.198,-0.117
GRWD1_Q9BQ67_90_DHLGDNRTELPLTLYLCAGTQAESAQSNR (UniProt Q9BQ67),0.0823,-0.3
GRAMD1A_Q96CP6_576_AHGDGPQHPDPDPCAR (UniProt Q96CP6),-0.24,-0.304
GRK2_P25098_72_DFCLNHLEEARPLVEFYEEIK (UniProt P25098),-0.0383,0.0292
HCCS_P53701_178_WEALHAAECPCGPSLIR (UniProt P53701),0.092,-0.0387
HACL1_Q9UJ83_261_GVVPDNHPYCVGAAR (UniProt Q9UJ83),-0.109,0.122
GTSF1_Q8WW33_17_LLQCPYDK (UniProt Q8WW33),-0.0775,-0.132
GTF2I_P78347_903_ITINPGCVVVDGMPPGVSFK (UniProt P78347),0.0896,0.0775
GTF3C5_Q9Y5Q8_242_VCTNPVDR (UniProt Q9Y5Q8),-0.0082,-0.169
GSK3B_P49841_335_LTPLEACAHSFFDELRDPNVK (UniProt P49841),0.133,0.0393
GSDMD_P57764_467_MCALYASLALLSGLSQEPH (UniProt P57764),0.184,0.155
GRN_P28799_335_GTCEQGPHQVPWMEK (UniProt P28799),-0.31,-0.373
GSS_P48637_294_CPDIATQLAGTKK (UniProt P48637),-0.134,-0.204
HCCS_P53701_176+178_WEALHAAECPCGPSLIR (UniProt P53701),0.0448,-0.686
GTPBP4_Q9BZE4_261_AAVLYVMDLSEQCGHGLR (UniProt Q9BZE4),0.331,0.25
HBS1L_Q9Y450_469_GLCLLEQIDSFKPPQR (UniProt Q9Y450),-0.114,0.00703
GSPT1_P15170_327_LESGSICK (UniProt P15170),0.0394,-0.0486

Target,probe-labelled cysteine peptide fold change (10 µM),probe-labelled cysteine peptide fold change (50 µM)
GRN_P28799_178_CITPTGTHPLAK (UniProt P28799),-0.279,-0.341
GRB2_P62993_32_VLNEECDQNWYK (UniProt P62993),0.215,-0.0382
HAUS3_Q68CZ6_271_LQLAYICAQHQLIHLK (UniProt Q68CZ6),-0.132,0.366
GSR_P00390_467_MVCANKEEK (UniProt P00390),0.0276,-0.195
GTF3C4_Q9UKN8_376_CVPLYHPYQK (UniProt Q9UKN8),0.0788,0.144
HAUS7_Q99871_119_LGHELMLCAPDDQELLK (UniProt Q99871),0.186,0.321
GTF3C5_Q9Y5Q8_242_RVCTNPVDR (UniProt Q9Y5Q8),0.0456,0.00204
HAUS6_Q7Z4H7_32_EHLWMYLQALGFEPGPATIACGK (UniProt Q7Z4H7),-0.00813,-0.143
GSTZ1_O43708_205_LLVLEAFQVSHPCR (UniProt O43708),0.0805,0.0886
GTF3C2_Q8WUA4_469_AHFVYGIACDNGCIWDLK (UniProt Q8WUA4),0.0565,0.104
GSTM1_P09488_174_CLDAFPNLK (UniProt P09488),0.0348,0.0737
GSTP1_P09211_102_DQQEAALVDMVNDGVEDLRCK (UniProt P09211),0.0332,1.08
H2AFY_O75367_276_FVIHCNSPVWGADK (UniProt O75367),0.0554,0.233
GSN_P06396_215_ATEVPVSWESFNNGDCFILDLGNNIHQWCGSNSNR (UniProt P06396),-0.128,-0.225
GRN_P28799_534_DVECGEGHFCHDNQTCCR (UniProt P28799),-0.158,-0.0628
HADHA_P40939_349_ALMGLYHGQVLCK (UniProt P40939),-0.165,-0.185
GYS1_P13807_444_QSFPPVCTHNMLDDSSDPILTTIRR (UniProt P13807),-0.0835,-0.118
HADHA_P40939_550_CLAPMMSEVIR (UniProt P40939),0.11,-0.0394
GRN_P28799_165+171_VHCCPHGAFCDLVHTR (UniProt P28799),0.144,-0.0654
